For four substances, binding results are on record in paper PMC12094168.

Amino acid sequences for entries named in this document (tags omitted).
UniProt P13378: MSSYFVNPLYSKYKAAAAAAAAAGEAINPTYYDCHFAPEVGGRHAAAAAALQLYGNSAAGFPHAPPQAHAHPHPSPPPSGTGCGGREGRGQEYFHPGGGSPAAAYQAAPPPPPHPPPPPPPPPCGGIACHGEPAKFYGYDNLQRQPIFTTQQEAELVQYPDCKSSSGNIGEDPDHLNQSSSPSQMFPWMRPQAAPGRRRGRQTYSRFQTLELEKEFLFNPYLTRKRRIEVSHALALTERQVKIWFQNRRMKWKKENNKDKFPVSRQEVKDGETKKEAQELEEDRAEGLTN
UniProt P19474: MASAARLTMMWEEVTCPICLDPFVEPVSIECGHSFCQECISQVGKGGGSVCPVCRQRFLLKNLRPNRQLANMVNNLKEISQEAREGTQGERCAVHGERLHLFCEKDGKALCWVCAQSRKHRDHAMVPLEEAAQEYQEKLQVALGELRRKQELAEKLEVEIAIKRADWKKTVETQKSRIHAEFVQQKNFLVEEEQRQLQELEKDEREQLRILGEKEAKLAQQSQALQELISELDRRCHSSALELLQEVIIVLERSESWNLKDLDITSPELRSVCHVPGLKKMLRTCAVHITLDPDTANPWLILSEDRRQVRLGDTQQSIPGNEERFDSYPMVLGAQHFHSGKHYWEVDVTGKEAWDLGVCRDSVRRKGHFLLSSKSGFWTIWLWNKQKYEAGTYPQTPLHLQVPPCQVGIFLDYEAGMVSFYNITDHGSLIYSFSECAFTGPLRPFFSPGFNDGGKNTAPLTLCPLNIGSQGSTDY

No constants are given. Whether binding was seen depends on the method and setting. In cells and extracts the contact can be indirect. Some results given as binding are weak or reduced against the parent protein; the word gives no strength.

For assay [1], the target named is Myc-HOXD8 (homeobox gene D8) (UniProt P13378). As to the kind of experiment: co-IP; 293 T cells overexpressing Flag-TRIM21 and Myc-HOXD8; RIPA lysate incubated with antibody (anti-Flag, anti-Myc or IgG control) overnight at 4°C, protein A/G beads 4 h, western blot.
For assay [2], the target named is HOXD8 (homeobox gene D8), endogenous (human (endogenous in CPT MSCs)) (UniProt P13378). As to the kind of experiment: co-IP; endogenous proteins in CPT MSCs; RIPA lysate incubated with antibody (anti-HOXD8 for immunoprecipitation, IgG control) overnight at 4°C, protein A/G beads 4 h, western blot. (In general: A western blot detects proteins with antibodies after separation by electrophoresis.)

Assay [3] concerns the target Flag-TRIM21 (tripartite motif containing 21) (UniProt P19474). As to the kind of experiment: co-IP; 293 T cells overexpressing Flag-TRIM21 and Myc-HOXD8; RIPA lysate incubated with antibody (anti-Flag, anti-Myc or IgG control) overnight at 4°C, protein A/G beads 4 h, western blot.
Assay [4] has as its target TRIM21 (tripartite motif containing 21), endogenous (human (endogenous in CPT MSCs)) (UniProt P19474). As to the kind of experiment: co-IP; endogenous proteins in CPT MSCs; RIPA lysate incubated with antibody (anti-HOXD8 for immunoprecipitation, IgG control) overnight at 4°C, protein A/G beads 4 h, western blot.

For “Flag-TRIM21 (tripartite motif containing 21) (from UniProt P19474 1-475)”, the binding result in assay [1] is reported as “binds”.
“TRIM21 (tripartite motif containing 21), endogenous (from UniProt P19474 1-475)”: the binding entry in assay [2] is “binds”.
Regarding “Myc-HOXD8 (homeobox gene D8) (from UniProt P13378 1-290)”, the binding result in assay [3] is “binds”.
Turning to “HOXD8 (homeobox gene D8), endogenous (from UniProt P13378 1-290)”, the binding entry in assay [4] is “binds”.
